In PubChem BioAssay AID1508600 (Functional Genomics Laboratory (NCATS/FGL), 2020):
Screen size: about 53,000 sequences; about 3,700 (7%) were called active.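 Rule for the calls: active = gene knockdowns whose robust z-score for IL-1 alpha signal is at least 2 or at most -2, so actives lie on both sides; inactive = the rest.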 Some of the results follow.

Assay: Components of the Cytosolic LPS Sensing Pathway: Gene Identification via Genome-wide siRNA Screen;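 note: robust z of the log signal after scaling to non-targeting control siRNA wells of the plate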
Conditions: RAW264.7 macrophages, IL-1a HTRF, actives lie on both sides, screened at 100 nM (by protocol), cells primed 5 h with Pam3CSK4 first
Summary of the method: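 Read-out: IL-1a HTRF on supernatant, divided by plate negative-control median ×100, log-transformed and converted to robust z-score. Cells were RAW264.7 given 100 nM siRNA, Pam3CSK4-primed 5 hours, then LipidA-transfected 24 hour.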

| Sequence | z-score |
| --- | --- |
| GGUGAUUGAUGAGAUUUACTT against Fbxo28 | inactive: 0.288 |
| GGUGACCUCUCAGAGGUACTT against Kctd14 | inactive: 0.96 |
| GGUGAACUUGUGUCUCACUTT against Tango2 | inactive: 0.0582 |
| GGCCAUUUACUUGAAGAACTT against Lpin3 | inactive: -0.0508 |
| GGUUUGUGAAUCUUAUCUCTT against Las1l | inactive: 0.38 |
| GCGCAUGUACAACACUCUATT against Abcf3 | inactive: -0.353 |
| GGAGACUUUGAAAAAAGACTT against Mrps31 | inactive: 0.5 |
| GGACAAGGAAUUAGGAGGATT against LOC626846 | inactive: -0.858 |
| GCCAAGUUUGAACUUCGGATT against Elovl6 | inactive: 0.151 |
| CCUAGCCAGCUAUGAUGUCTT against Mcoln1 | inactive: -1 |
| GGAAAACUGGACAGAAAAUTT against Ndufb4 | inactive: -1.07 |
| GCUUUUGCCAAGCAUAAUATT against Crot | inactive: -0.452 |
| CCAUUCAGAUCCUCUUCACTT against Olfr48 | inactive: -1.08 |
| GCGAACACGAUUCAUUUAGTT against Suds3 | inactive: 0.903 |
| GGGAUCUUACAUGCCACCATT against Olfr1231 | inactive: -0.000779 |
| GGACCUUGAGAAAGUAGUCTT against Ms4a10 | inactive: 0.651 |
| GGAGUGAUGUUCAUUCUGGTT against Tspan5 | inactive: -0.092 |
| GGACAAAAGAUGAAUGCUCTT against Msln | inactive: -0.246 |
| GGAGACGACUCCAUUCACATT against Thbs3 | inactive: -1.92 |
| CCCUAACAUCUCUUUGUUGTT against Slc15a3 | inactive: -0.095 |
| CCUUUUACUGCUCACCGACTT against Sass6 | inactive: 1.38 |
| GGUUGAAACGAGUUUUGAATT against Zbtb5 | inactive: 0.00556 |
| GGACUUUGUCAACCAUGUCTT against Fbxl5 | inactive: -0.0144 |

| Sequence | z-score |
| --- | --- |
| GCCUGAUAUCAACAUAGGATT against Pth2r | inactive: 0.802 |
| GCUUGUUUAGUAUACAGCCTT against Mterf4 | inactive: -0.373 |
| GGUAUUCUUCUGUCUAUGATT against Olfr1107 | inactive: 0.452 |
| GGAUGUUGUUUAUCGAGGATT against Med21 | inactive: -0.572 |
| GGUAUGUCUGAUGCAUAGGTT against Mos | inactive: 0.421 |
| GAGCCAAGUACCAUCUAUATT against Olfr389 | active: 2.28 |
| GGAGAAGAUAAAAUGGAUGTT against Ptbp2 | inactive: 0.675 |
| CCUCAAUAUGAAUAAAGUGTT against Marchf1 | inactive: 0.0232 |
| GGAAGUACAAUGCAAUCAATT against Obox3 | inactive: -0.429 |
| CCUAGAGUACUAUUAAAAGTT against Srrm2 | inactive: -1.12 |
| CCUGUGGAUCCAUUUGUUCTT against Tex15 | active: -2.25 |
| CCUAAAAACUCUGGAUUCUTT against Dennd6a | inactive: -0.0995 |
| GCAAAGUUGAGUGCACUUATT against Scrn1 | inactive: -0.00924 |
| CCAUCAUGAACAGCCAGCUTT against Olfr463 | inactive: -0.44 |
| GGAAGAGAAUAGAUCCUAUTT against Zbtb8a | inactive: -0.388 |
| GGAUCACCCAUACAGGAACTT against Pla2g2f | active: -2.1 |
| CCAAGUCCUUCAUCGAAUATT against Kif1a | inactive: 1.4 |
| GGCCAAGAUUAGAUUGCUUTT against Senp2 | active: 2.57 |
| GGCUAUUGUUGGUAGAACUTT against Dek | inactive: 0.441 |
| GGAGCACAUGCUGAAGGAUTT against Wwc1 | inactive: 0.747 |
| GCACGGUCUUAUUGAGAGGTT against Zfp787 | inactive: 0.485 |
| GGAAGACAAUGGUGUGAAATT against Pgm3 | inactive: -0.74 |
| GGAUUUAACUCCAUUUCAATT against Tlr3 | inactive: 0.337 |

| Sequence | z-score |
| --- | --- |
| GGACAGUUUUAAAGAAGAATT against Tstd2 | inactive: 1.05 |
| GGGUAUUUCCACUUCAUAGTT against Acsm2 | inactive: 1.59 |
| GGUCUUGCUGUUCGAAGAATT against Gsx1 | inactive: 0.417 |
| GCCGUACCAUGUAAUGCCATT against Naa60 | active: -2.05 |
| GCUGCUAUAUCUGAAAACATT against Wee2 | inactive: -0.644 |
| GGCCGAGACUUCUCUUUUATT against Grin2c | inactive: 0.803 |
| GGAUCCAACAAAUGUUAUUTT against Ccdc92 | active: 2.06 |
| GGAAUAAGGAAGUUAUUGGTT against Olfr706 | inactive: -0.356 |
| GGGAAGAACUUCAAGCUUGTT against Ptk2b | inactive: 0.668 |
| GGAUGGAGGAAGACUCGAUTT against Etv6 | active: 2.14 |
| GGGAGCUGUUCUAUGAAGATT against Fhl3 | inactive: 0.00952 |
| GGACAUGUCUUCCCUGAAUTT against Hgs | inactive: -1.66 |
| GGACCUCGAUACAAUGGUCTT against Gkn1 | inactive: -0.257 |
| GGACAACUUCUUCAUUGAGTT against Slc8a2 | inactive: -0.334 |
| GGAGUGCCUUUAGACAUGCTT against Tbpl2 | inactive: 0.306 |
| AACGUAAUUAGCGUGAAUUTT against Cyp2j11 | inactive: 0.337 |
| GCACAUUCAACUUUGACCATT against Castor1 | inactive: -1.99 |
| GGCCCUGGUUUCAUUAGGATT against Gab3 | inactive: -1.05 |
| GGGUCUUGCCUACUUGCAUTT against Map4k5 | inactive: -1.98 |
| CCUGGUACAAGAGGAGUUUTT against Myg1 | inactive: 1.18 |
| CCCAGCUCUUAUGUUUACCTT against Ap4b1 | inactive: -0.399 |
| GGAGCUUUCUCAAGAUUCATT against Arid1a | inactive: 0.263 |
| GGUGCAGUUGAAAGAACUCTT against Hoxa13 | inactive: 0.501 |

Five entries from above, as tab-separated lines.
Sequence	z-score
GCUUGUUUAGUAUACAGCCTT against Mterf4	inactive: -0.373
GGAUGUUGUUUAUCGAGGATT against Med21	inactive: -0.572
GGAAGACAAUGGUGUGAAATT against Pgm3	inactive: -0.74
GGUCUUGCUGUUCGAAGAATT against Gsx1	inactive: 0.417
GGAGCUUUCUCAAGAUUCATT against Arid1a	inactive: 0.263
